Sequences and labels used below:
T1: 3xFLAG-tagged PCGF1 (UniProt Q8R023)
T1 sequence: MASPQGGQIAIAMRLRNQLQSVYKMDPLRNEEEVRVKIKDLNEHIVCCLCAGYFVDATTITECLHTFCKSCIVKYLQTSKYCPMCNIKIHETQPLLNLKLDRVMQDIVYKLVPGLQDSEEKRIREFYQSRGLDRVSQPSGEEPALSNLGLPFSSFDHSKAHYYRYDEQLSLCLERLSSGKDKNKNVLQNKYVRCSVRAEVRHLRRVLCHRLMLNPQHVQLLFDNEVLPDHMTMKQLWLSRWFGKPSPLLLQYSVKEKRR

Sequences of proteins named here, by UniProt entry; tags and fusion partners are left off.
UniProt P97822: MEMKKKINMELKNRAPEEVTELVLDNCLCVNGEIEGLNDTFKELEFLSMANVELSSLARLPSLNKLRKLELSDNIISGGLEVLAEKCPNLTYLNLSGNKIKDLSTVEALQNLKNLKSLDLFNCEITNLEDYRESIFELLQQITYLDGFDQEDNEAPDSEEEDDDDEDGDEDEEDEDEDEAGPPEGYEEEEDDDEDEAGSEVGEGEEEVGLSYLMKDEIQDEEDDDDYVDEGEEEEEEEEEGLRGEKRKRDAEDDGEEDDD
UniProt A2AQH4: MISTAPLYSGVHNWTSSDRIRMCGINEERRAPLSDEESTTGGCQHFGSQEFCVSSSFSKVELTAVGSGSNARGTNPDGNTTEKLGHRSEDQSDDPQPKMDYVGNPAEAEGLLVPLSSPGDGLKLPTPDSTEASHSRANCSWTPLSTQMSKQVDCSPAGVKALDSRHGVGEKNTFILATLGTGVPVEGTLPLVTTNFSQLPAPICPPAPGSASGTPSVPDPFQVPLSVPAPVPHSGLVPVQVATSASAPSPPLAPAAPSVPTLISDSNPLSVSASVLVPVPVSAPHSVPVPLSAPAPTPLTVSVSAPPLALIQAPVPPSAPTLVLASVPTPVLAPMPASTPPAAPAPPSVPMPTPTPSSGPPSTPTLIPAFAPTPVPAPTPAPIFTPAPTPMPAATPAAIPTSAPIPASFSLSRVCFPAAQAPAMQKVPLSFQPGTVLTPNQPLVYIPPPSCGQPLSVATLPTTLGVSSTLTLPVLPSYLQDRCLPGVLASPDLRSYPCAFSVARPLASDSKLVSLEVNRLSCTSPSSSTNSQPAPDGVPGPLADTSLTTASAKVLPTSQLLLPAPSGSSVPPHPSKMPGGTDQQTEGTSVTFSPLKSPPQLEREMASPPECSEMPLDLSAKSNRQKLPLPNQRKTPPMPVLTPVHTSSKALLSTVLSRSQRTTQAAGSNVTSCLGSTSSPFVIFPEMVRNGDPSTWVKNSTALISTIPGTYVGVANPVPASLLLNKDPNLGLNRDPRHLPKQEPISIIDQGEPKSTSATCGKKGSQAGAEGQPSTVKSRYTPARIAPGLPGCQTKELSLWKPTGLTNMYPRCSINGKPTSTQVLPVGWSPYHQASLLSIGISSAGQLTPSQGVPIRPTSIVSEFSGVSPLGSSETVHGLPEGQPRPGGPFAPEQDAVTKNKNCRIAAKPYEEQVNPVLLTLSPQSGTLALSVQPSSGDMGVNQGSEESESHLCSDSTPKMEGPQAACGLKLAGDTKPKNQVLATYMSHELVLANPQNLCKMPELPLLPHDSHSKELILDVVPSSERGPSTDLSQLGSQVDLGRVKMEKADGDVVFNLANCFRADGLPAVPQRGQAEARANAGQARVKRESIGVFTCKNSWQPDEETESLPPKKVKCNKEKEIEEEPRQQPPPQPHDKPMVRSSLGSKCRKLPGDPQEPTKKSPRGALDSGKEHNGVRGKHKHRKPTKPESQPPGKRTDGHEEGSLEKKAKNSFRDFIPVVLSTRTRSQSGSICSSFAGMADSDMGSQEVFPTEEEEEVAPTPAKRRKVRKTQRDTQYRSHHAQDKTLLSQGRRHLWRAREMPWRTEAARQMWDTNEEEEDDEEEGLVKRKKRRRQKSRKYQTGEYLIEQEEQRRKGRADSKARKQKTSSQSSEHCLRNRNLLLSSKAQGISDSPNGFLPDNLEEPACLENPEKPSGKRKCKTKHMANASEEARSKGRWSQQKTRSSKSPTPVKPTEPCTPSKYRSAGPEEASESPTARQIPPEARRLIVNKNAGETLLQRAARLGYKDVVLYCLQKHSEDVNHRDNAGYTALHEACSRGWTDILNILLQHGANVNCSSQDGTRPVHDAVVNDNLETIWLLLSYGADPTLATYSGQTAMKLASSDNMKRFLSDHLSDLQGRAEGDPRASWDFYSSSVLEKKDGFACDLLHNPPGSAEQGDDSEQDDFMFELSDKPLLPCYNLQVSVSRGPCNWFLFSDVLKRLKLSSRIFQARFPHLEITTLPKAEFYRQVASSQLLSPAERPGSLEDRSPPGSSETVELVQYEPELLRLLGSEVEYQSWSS
UniProt O35730: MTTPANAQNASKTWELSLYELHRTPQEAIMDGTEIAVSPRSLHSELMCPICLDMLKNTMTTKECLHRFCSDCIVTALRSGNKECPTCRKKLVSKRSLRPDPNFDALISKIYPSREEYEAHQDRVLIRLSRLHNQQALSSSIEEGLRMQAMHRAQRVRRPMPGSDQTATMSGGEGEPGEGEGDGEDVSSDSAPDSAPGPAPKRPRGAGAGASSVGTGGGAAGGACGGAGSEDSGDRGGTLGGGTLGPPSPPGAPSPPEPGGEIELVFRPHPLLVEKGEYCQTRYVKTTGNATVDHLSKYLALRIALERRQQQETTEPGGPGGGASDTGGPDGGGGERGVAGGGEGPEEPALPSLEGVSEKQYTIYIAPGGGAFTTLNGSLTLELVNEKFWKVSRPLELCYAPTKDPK
UniProt Q9WTM5: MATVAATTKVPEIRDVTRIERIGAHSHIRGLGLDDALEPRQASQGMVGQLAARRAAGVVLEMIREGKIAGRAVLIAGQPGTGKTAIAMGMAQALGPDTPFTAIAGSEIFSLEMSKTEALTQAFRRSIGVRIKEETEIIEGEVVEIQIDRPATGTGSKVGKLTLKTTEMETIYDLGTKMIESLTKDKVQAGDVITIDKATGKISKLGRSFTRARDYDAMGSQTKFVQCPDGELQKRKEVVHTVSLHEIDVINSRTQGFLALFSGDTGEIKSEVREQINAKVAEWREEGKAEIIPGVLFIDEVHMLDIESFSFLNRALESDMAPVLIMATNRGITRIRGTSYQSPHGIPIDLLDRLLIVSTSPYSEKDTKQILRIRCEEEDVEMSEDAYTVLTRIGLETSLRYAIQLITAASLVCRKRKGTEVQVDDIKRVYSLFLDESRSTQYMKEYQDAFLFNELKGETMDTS

B1: KDM2B (lysine demethylase 2B) (protein, UniProt Q6P1G2 1-1309)
chain: MEAEKDSGRRLRAIDRQRYDENEDLSDVEEIVSVRGFSLEEKLRSQLYQGDFVHAMEGKDFNYEYVQREALRVPLVFRDKDGLGIKMPDPDFTVRDVKLLVGSRRLVDVMDVNTQKGTEMSMSQFVRYYETPEAQRDKLYNVISLEFSHTKLEHLVKRPTVVDLVDWVDNMWPQHLKEKQTEATNALAEMKYPKVKKYCLMSVKGCFTDFHIDFGGTSVWYHVFRGGKIFWLIPPTLHNLALYEEWVLSGKQSDIFLGDRVERCQRIELKQGYTFFIPSGWIHAVYTPVDSLVFGGNILHSFNVPMQLRIYEIEDRTRVQPKFRYPFYYEMCWYVLERYVYCVTQRSYLTQEYQRELMLIDAPRKTSVDGFSSDSWLDMEEESCEQQPQEEEEEEEDKEEEGDGADKTPKPPTDDPTSPTSTPPEDQDSTGKKPKAPAIRFLKRTLSNESEESVKSTSMPTDDPKTPTGSPATEVSTKWTHLTEFELKGLKALVEKLESLPENKKCVPEGIEDPQALLEGVKNVLKEHVDDDPTLAITGVPVVSWPKKTAKNRVVGRPKGKLGPASAVKLAANRTTAGARRRRTRCRKCEACLRTECGECHFCKDMKKFGGPGRMKQSCIMRQCIAPVLPHTAVCLVCGEAGKEDTVEEEEGKFNLMLMECSICNEIIHPGCLKIKESEGVVNDELPNCWECPKCNHAGKTGKQKRGPGFKYASNLPGSLLKEQKMNRDNKEGQEPAKRRSECEEAPRRRSDEHPKKVPADGILRRKSDDVHLRRKRKYEKPQELSGRKRASSLQTSPGSSSHLSPRPPLGSSLSPWWRSSLTYFQQQLKPGKEDKLFRKKRRSWKNAEDRLSLANKPLRRFKQEPEDDLPEAPPKTRESDQSRSSSPTAGPSTEGAEGPEEKKKVKMRRKRRLVNKELSKELSKELNHEIQKTESTLAHESQQPIKSEPESENDEPKRPLSHCERPHRFSKGLNGTPRELRHSLGPGLRSPPRVMSRPPPSASPPKCIQMERHVIRPPPISPPPDSLPLDDGAAHVMHREVWMAVFSYLSHRDLCVCMRVCRTWNRWCCDKRLWTRIDLNRCKSITPLMLSGIIRRQPVSLDLSWTNISKKQLSWLINRLPGLRDLVLSGCSWIAVSALCSSSCPLLRTLDVQWVEGLKDAQMRDLLSPPTDNRPGQMDNRSKLRNIVELRLAGLDITDVSLRLIIRHMPLLSKLQLSYCNHINDQSINLLTAVGTTTRDSLTEVNLSDCNKVTDLCLSFFKRCGNICHIDLRYCKQVTKEGCEQFIAEMSVSVQFGQVEEKLLQKLS
B2: RYBP (protein, UniProt Q8CCI5 1-228)
chain: MTMGDKKSPTRPKRQAKPAADEGFWDCSVCTFRNSAEAFKCSICDVRKGTSTRKPRINSQLVAQQVAQQYATPPPPKKEKKEKVEKPDKEKPEKDKDISPSVTKKNTNKKTKPKSDILKDPPSEANSIQSANATTKTSETNHTSRPRLKNVDRSTAQQLAVTVGNVTVIITDFKEKTRSSSTSSSTVTSSAGSEQQNQSSSGSESTDKGSSRSSTPKGDMSAVNDESF

These are yes or no findings as the source states them, for the method shown. Binding seen in cells or lysates may run through a third protein. Here binding means that the protein was enriched with, or labelled near, the bait; the list need not be complete. Where a sequence is shown, tags or fusion partners need not be part of it.

One assay has as its target T1, 3xFLAG-tagged PCGF1. Kind of assay: affinity purification with mass spectrometry; pull-down of exogenous 3xFLAG-PCGF1 expressed in Pcgf1-KO IdHPCs, followed by mass spectrometry (IP-MS); mock immunoprecipitation as negative control; two independent experiments.
As to B1, the binding result is listed as “binds”.

As to B2, the binding result is reported as “binds”.

The next assay deals with T1, 3xFLAG-tagged PCGF1. The assay is described as above. This is another data set of the same source.
For the molecule ANP32E (from UniProt P97822 1-260), the binding entry is on record as “binds”.

For BCORL1 (from UniProt A2AQH4 1-1781), the binding entry is recorded as “binds”.

With RING1A (from UniProt O35730 1-406), the binding entry was “binds”.

Take RUVBL2 (from UniProt Q9WTM5 1-463): the binding entry is “binds”.

The values above are taken from PMC9705430.
